Patent US7109215B2, “Compounds possessing neuronal activity” (Vertex Pharmaceuticals Incorporated, priority 1997, dated 2006)
Some of these results come from one statement about several compounds together.

Test system: pheochromocytoma PC12 cells
Experiment: Neurite outgrowth quantitation in PC12 cell system
Assay type: cell-based, rat
Conditions: PC12 assay, summary in text
Procedure: In order to directly determine the neurotrophic activity of compounds described in this invention, the neurite outgrowth assay was carried out with pheochromocytoma PC12 cells as described by Lyons et al. (1994).
PC12 cells were maintained at 37° C. and 5% CO2 in Dulbecco's modified Eagle's medium (DMEM) supplemented with 10% heat-inactivated horse serum, 5% heat-inactivated fetal bovine serum (FBS), and 1% glutamate.
The cells were then plated at […] in 96 well plates coated with […] rat tail collagen and allowed to attach overnight. The medium was then replaced with DMEM, 2% heat-inactivated horse serum, 1% glutamate, 1–5 ng/ml of NGF (Sigma) and varying concentrations of the compounds of this invention (0.01 nM–10000 nM). The background control culture was administered with […] of NGF alone without compound. Positive control cultures were administered with high concentration of NGF (50 ng/ml). The cells were then incubated at 37° C. at 5% CO2 for 72 hours, fixed with 3% formaldehyde and nerve outgrowth was determined visually on a scale of 0 to 4.

For CN(C(=O)[C@H](Cc1ccccc1)N(C)S(=O)(=O)c1ccc(Nc2ccc([N+](=O)[O-])cc2[N+](=O)[O-])cc1)C(CCCc1cccnc1)CCCc1cccnc1 [Compound 5], the “Neurite outgrowth over background control cultures (in words)” value was “significant increase in neurite outgrowth”.
